Values of other authors as cited in patent US20150065582A1, “Orally Dissolving Formulations of Memantine” (Forest Laboratories Holdings Limited, priority 2006, published 2015).
Counter-ions that a name gives are not always drawn. At least one read-out could not be matched to a standard name with certainty.

For `CC12CC3CC(C)(C1)CC(N)(C3)C2` [Memantine HCl], the “permeability (classification)” value is given as “highly permeable”.
